Values from PubChem BioAssay AID652243 (Drosophila RNAi Screening Center, 2013).
Test: 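Fly regulators of androgen-dependent reporter output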 (primary screen). System: Drosophila S2R+ cells. Reagents: long dsRNA against Drosophila genes. Time to read-out: 72 h (48 h, then 24 h hormone). Challenge: synthetic androgen R1881 at 10 nM for 24 h. Read-out: 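Firefly light from an androgen-responsive reporter and Renilla control light per well, raw and unnormalised, for each of two replicates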. Scale: firefly reporter light: higher = more light from androgen-responsive reporter; Renilla control light: higher = more constitutive control signal (cell number, transfection). Call rule: 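Across duplicate plates, a knock-down whose log firefly/Renilla ratio shifted a set fold down or up from the GFP/LacZ control mean was a hit; the downward cut appears as both 1.5 and 3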. Meaning of the calls: active = hit: reporter lowered or raised; inactive = no hit.
The deposit covers about 24,000 reagents; shown is a random part of those that have a named target and a result. Of all reagents, 246 (1%) are marked active. 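Plates not normalised; calls are printed but the firefly/Renilla ratio behind them is not deposited; fold cut for lowering reported inconsistently.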 Raw values vary from plate to plate and are shown uncorrected. Entries without a mark were called inactive. Reagents against one gene are numbered here. A plus sign joins genes that one reagent is predicted to hit. Not stated in the record: the amount of reagent.

gene	reagent	firefly reporter light, replicate 1	firefly reporter light, replicate 2	Renilla control light, replicate 1	Renilla control light, replicate 2
alphaSnap	1	52191	75072	4.23e5	3.62e5
alphaSnap	2	5.41e5	4.32e5	1.59e6	1.53e6
CG13130 (retired record)	1	4.02e5	2.67e5	2.16e6	2.08e6
CG13130 (retired record)	2	8.64e5	9.56e5	1.45e6	1.56e6
CG5823	1	40835	98502	5.85e5	7.81e5
CG9997	1	2.34e5	2.82e5	2.09e6	3.36e6
CG9997	2	2.74e5	4.07e5	6.00e5	6.00e5
fipi	1	67682	1.04e5	3.48e5	5.44e5
fipi	2	7.31e5	6.60e5	9.67e5	6.54e5
LysD + LysB + LysC (retired record)	1	1.06e5	1.41e5	2.51e5	2.53e5
lncRNA:CR32385	1	5.82e5	9.62e5	1.26e6	1.96e6
CG17005	1	1.64e5	2.35e5	8.56e5	1.30e6
Uba1	1	1.21e6	1.23e6	1.29e6	1.42e6
Uba1	2	3.01e5	5.24e5	9.37e5	1.67e6
CG3776	1	1.38e6	1.08e6	1.29e6	1.21e6
Sas10	1	2.18e5	1.91e5	2.02e6	2.92e6
mRpL3	1	5.77e5	4.96e5	3.37e6	3.10e6
ctp	1	87506	36402	4.39e5	3.50e5
ctp	2	7.58e5	7.93e5	9.96e5	6.94e5
Obsc	1	5.65e5	5.68e5	3.42e6	3.78e6
Obsc	2	1.17e6	7.48e5	1.74e6	1.63e6
Obsc	3	1.40e5	1.69e5	1.32e6	9.24e5
Obsc	4	1.69e5	76721	8.95e5	8.38e5
Obsc	5	4.89e5	6.83e5	1.25e6	2.24e6
CG12637	1	3.39e5	3.83e5	2.53e6	3.29e6
CG12637	2	3.18e5	2.65e5	1.09e6	1.03e6
lncRNA:iab4	1	1.07e6	8.84e5	1.42e6	1.17e6
lncRNA:iab4	2	3.60e5	2.92e5	7.22e5	6.68e5
fzr2	1	1.17e6	4.52e5	2.16e6	8.73e5
neb	1	7.91e5	9.85e5	1.75e6	1.86e6
neb	2	1.89e5	4.77e5	6.61e5	1.27e6
CG15099	1	7.80e5	1.08e6	1.75e6	2.08e6
CG12259	1	4.90e5	6.95e5	3.73e5	4.53e5
CG12259	2	4.16e5	3.88e5	1.81e6	1.99e6
Cp190	1	86013	87154	7.51e5	3.62e5
Not1	1	2.85e5	2.21e5	1.87e6	1.66e6
Not1	2	9.82e5	8.05e5	1.17e6	1.22e6
asRNA:CR43299 + CG8119	1	2.26e5	2.37e5	1.97e6	2.12e6
glob3	1	41546	32991	6.24e5	7.62e5
Npc2f	1	1.33e5	1.30e5	7.27e5	8.23e5

Entries listed so far whose target name starts with U or u (2):
gene	reagent	firefly reporter light, replicate 1	firefly reporter light, replicate 2	Renilla control light, replicate 1	Renilla control light, replicate 2
Uba1	1	1.21e6	1.23e6	1.29e6	1.42e6
Uba1	2	3.01e5	5.24e5	9.37e5	1.67e6
